According to a protein production outcome set (Wang et al. 2014):

experiment: label from the status in PepcDB records
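Also: failed if final PepcDB status was selected cloned or expressed and not failed if soluble or beyond.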

Sequence | protein production
FVNVGERTNVTGSKKFLRLIREEKFAEALEVAQQQVEAGAQIIDINMDEGMLDSQNAMVHFLNLVASEPDISRVPIMIDSSKWEIIEAGLKCVQGKPVVNSISLKEGYDEFVEKARLCRQYGAAIIVMAFDETGQADTAARKREICKRSYDVLVNEVGFPAEDIIFDPNVFAVATGIEEHNNYGVDFIEATGWIKQNLPHAMISGGVSNVSFSFRGNEPVREAIHSVFLYHAIKQGMTMGIVNAGQMAIYDDIPKELKDAVEDVVLNQNQGESGQNATEKLLEVAEKFRGHSGAQREA | failed
IIGTWLWDLPSDRFTVDEAFARAFGLDPALGRDGLSLAQIVATVHPDDRAGLATAIEEAIKRGGPYAHQYRVRRTDGKYYWLEANGRVEHGPDGTPLSFPGVLIDVDDRRALVAERDRAIAELRALNETLEQRVAEARAELLRSAEQLRQSQKMEAVGQLTGGLAHDFNNLLAGISGSLELMSSRIRQ | failed
MAANLSRNGPALQEAYVRVVTEKSPTDWALFTYEGNSNDIRVAGTGEGGLEEMVEELNSGKVMYAFCRVKDPNSGLPKFVLINWTGEGVNDVRKGACASHVSTMASFLKGAHVTINARAEEDVEPECIMEKVA | not failed
MALYFDHRIKAPDTPSSPSHITWHPTHPFLAVASISPSSGGNVDIYLEQGEPVPDTHIERSFQATSLCWHPTRLILAIGWETGEVIMFNKQDKEQHTVPLPHTTDIAILSWSTSGSCLVSGDKLGVLLLWRLDQRGRVQGTPLLKHEYGKALTHCIFRLPPPGEDLVQLAKAAVSGDEKALDMFNWRKSSFGSFLKTGSQEGLSFFVSLMDGTVHYVDEKGKTAQVASTDSSIQTLFYIERREALVVVTENLLLSLYVVTPEGEAEEVMKVKLSGKTGCRADITLIEGSLLVTAIGEPVLRFWDLERGENYILSLQEKFGFEKGESINCVCFCKAKGLLAAGTNKGRVAMWKKVPSFPNGRGAEGKDMWALQTPTELEGNITQIKWGSRKNLLAVSSTESVSILSEQAMSSHFHQQVAAVQISPSLVNVSFLSTGGTHSLHTDMHISGVFATKDAVAVWNGKQVAIFEPSGSTLRNAG | failed
MDGGYDQSGGASRYFHNLFRPELHHQLQPQPQLHPLPQPQPQPQPQQQNSDDESDSNKDPGSDPVTSGSTGKRPRGRPPGSKNKPKPPVIVTRDSPNVLRSHVLEVSSGADIVESVTTYARRRGRGVSILSGNGTVANVSLRQPATTAAHGANGGTGGVVALHGRFEILSLTGTVLPPPAPPGSGGLSIFLSGVQGQVIGGNVVAPLVASGPVILMAASFSNATFERLPLEDEGGEGGEGGEVGEGGGGEGGPPPATSSSPPSGAGQGQLRGNMSGYDQFAGDPHLLGWGAAAAAAPPRPAF | failed
MFSEQAAQRAHTLLSPPSANNATFARVPVATYTNSSQPFRLGERSFSRQYAHIYATRLIQMRPFLENRAQQHWGSGVGVKKLCELQPEEKCCVVGTLFKAMPLQPSILREVSEEHNLLPQPPRSKYIHPDDELVLEDELQRIKLKGTIDVSKLVTGTVLAVFGSVRDDGKFLVEDYCFADLAPQKPAPPLDTDRFVLLVSGLGLGGGGGESLLGTQLLVDVVTGQLGDEGEQCSAAHVSRVILAGNLLSHSTQSRDSINKAKYLTKKTQAASVEAVKMLDEILLQLSASVPVDVMPGEFDPTNYTLPQQPLHPCMFPLATAYSTLQLVTNPYQATIDGVRFLGTSGQNVSDIFRYSSMEDHLEILEWTLRVRHISPTAPDTLGCYPFYKTDPFIFPECPHVYFCGNTPSFGSKIIRGPEDQTVLLVTVPDFSATQTACLVNLRSLACQPISFSGFGAEDDDLGGLGLGP | failed
MGREVVEVLMDRNADVSSARVHVAPKIAAEETDEEFEVKECTEEKSLSENAPNVGSAERVGAQKSPKTRNGNAKVSKQQDAPLLAVRKPLQPENKKHIDDEDNCSIASSVATSMRMGKSGLTYGSAPTFRSAQRAEKRKEYYQKLEEKNQALEAERNELEQRQKDEQEAALKQLRKNLKFKAKPVPNFYYEAPPAKPELKKLPLTRPKSPKLILSRRKSFSDAVSSSSREEILKTVSNRNRHSTGTVQNKDDDHRNKNTNAAHDSPRVRSGKGKSGLKPVNESSEEA | failed
MLASTSPTLVGQGLELRRLWEGAGVSGPSGCSVVLRPHCPGRSGRDSSRAGSLRAEPLRVTCTRDFSCVLGHEALVTSRFPTYVAPMAPLVPGPPLEASPTTLDAAVRWGLQRPVRGHMAPGQAGGRGDASALGAQYSWARDGRSAVGSKLSWVGPAAPESKAAQGREMGRDVGKAVDCLDLSGPDGASCLQLSLRKSELFPAARRPGRPADPGLSPRCLRRPPLRPGPASTPLRGPGAARPPPLPPHSRGRSAVSFLAFLPPQRSPSAPREAAGSRGGLRASGGRCGGPAGAAAGSGGGGDAPGPAGRAMQRSRAGADEAALLLAGLALRELEPGCGSPGRGRRGPRPGPGDEAAPALGRRGKGSGGPEAGADGLSRGERGPRRAAVPELSAQPAGSPRASLAGSDGGGGGGSARSSGISLGYDQRHGSPRSGRSDPRPGPGPPSVGSARSSVSSLGSRGSAGAYADFLPPGACPAPARSPEPAGPAPFPLPALPLPPGREGGPSAAERRLEALTRELERALEARTARDYFGICIKCGLGIYGAQQACQAMGSLYHTDCFTCDSCGRRLRGKAFYNVGEKVYCQEDFLYSGFQQTADKCSVCGHLIMEMILQALGKSYHPGCFRCSVCNECLDGVPFTVDVENNIYCVRDYHTVFAPKCASCARPILPAQGCETTIRVVSMDRDYHVACYHCEDCGLQLSGEEGRRCYPLAGHLLCRRCHLRRLQPGPLPSPTVHVTEL | failed
MLSLPLDPVQAPWAAIAVILAMLVFFVLEILPVEVTAIVGATAMVLLGLLPQEEVLDVLSNAAPWTIAAMFVIVGALVRTGALDWITRLATQHVGLRPRTTVAVLCVGIVAMSAVVNNTPIVVVFLPVFIQLAAEMRIAPSKLLIPLSYLSIMGGTVTLIGTSTNLVVDGVARANGLDPFGIFEITPVGLPLAIVGMLYLAFLGPKLLPARSSMAGMLTGKRRMKFFTEVAVPEGSPLIGKTLEQVEIFRRSDVQVIDVLRGDSSLRRALATVELAAGDRVVLRSPMGEILTLQDHRHLQLVNRLASVQTQTVEVLITPGCRLIGRSLGDLRLRRRYGVYPLAVHRRNRNLGRQMDDVVVAVGDTLLLEGAMDDIRRLAQEMDLTDLSHPQERPFRRRRAPIAVAVLAAIILLSSFDVAPIEILAFMGVTVVLVTRCIDSEEAFASIDGRLMAMLFGMIAVGAGLDHSGAVELIVGWAEPWLADLPAWLLIFCVFALTSLLTELLSNNAVAVVVTPVAIELAQRLGVDPRPILVAVMMGASFGFATPIGYQCNLLVYGPGGYTFGDFLRIGVPLNVLMGVAAAIVIPLVYGL | failed
MPVLAPRDSRLPVTVLSGFLGAGKTTLLNRILHNREGLRVAVIVNDMSEINIDAQLLREGGAALRRTDETLVEFSNGCICCTLRDDLLQEVKRLASERRYDYLLIESTGIAEPMPVAATFAVRDADGFSLSDIARLDTMVTVVDGSRFLEDFGSAATLAELGQQAGPDDTRGLVQLLGDQVEFADVLVISKCDQIDTPRLHRLHAVLRALNRDAAIVDAAHGEVPLRQLLDTGRFDFTRAQLAPGWMQELRGQHTPETEEYGITSFVYRARRPFHPQRFARMVQGGLPQVIRSKGFFWLASRMDWVGELSSVGGATQTNAAGFWFAARHRVDAHAIGEPLQTSITPLPYTDIGWQRQQTQCWTAPLPQLHEVGDASEYAAMQRLWHPLWGDRRQELAVIGVDMDAPRTRAALDACLLSDHELRQGPAQWQLLDDPFPHWQR | failed
MTPEKHRARKRQAWLWEEDKNLRSGVRKYGEGNWSKILLHYKFNNRTSVMLKDRWRTMKKLKLISSDSED | not failed
SAKLGFRVSVHMSADARQWKKDKLRSLGVNVVEYASDYGVAVEQGRKAAESDPNCFFIDDENSTTLFLGYAVAGLRLKQQLIDQNIQVDAEHPLFVYLPCGVGGGPGGVSFGLKHALGEHVHCIFAEPTHSPCMLLGVYTGLHDQICVADIGLDNATAADGLAVGRASGFVGRAMQDLIDGYYTISDQHLFEFIRLMDQTQSIQLEPSAVAGVLGIYHVNTNKSYQQAYHLNAIQLKNATHLIWATGGGMVPPNEMQKYL | failed
TDLMLVADFNGRIVAVNPAWTQLLGWEREELEGSSFYDFIHPQDSLAAAGAAADLSRGESFSRFENRFRHRDGSYRWMAWSAVPDPHHIHAVGRDMQAEREAAQALRKTEDILRQAQKMEAVGQLTGGVAHDFNNLLTVIRSSTDLLRRNLS | failed
